US11850233B2, “Reduced adaptive microbial resistance treatment for flesh eating disease (necrotizing fasciitis)” (priority 2019, dated 2023)
At least one structure is not confirmed: it was looked up by name or label, or the drawing left a doubt.

System: E. coli (BL21) bacteria
Test: In vitro inhibition of E. coli (BL21) growth on LB agar plates, dark or irradiated
Type: cell-based
Conditions: dark, aerobic; 0.3 ppm (Example 1 composition: Zn(II) 0.15 ppm + TMPyP 0.15 ppm); 10 minutes; plates after 48 hours
Text: E. coli (BL21) bacteria was used as a model prokaryote to determine the efficacy of the inventive treatment composition to kill bacteria. The effect of inventive composition as well as each individual component of the composition were all tested to determine the effect each on the growth of E. coli bacteria. The procedure described in Herschmann, R. J. et al (2019) “Effect of toxic metal ions on photosensitized singlet oxygen generation for photodegradation of polyaromatic hydrocarbon derivatives and inactivation of Escherichia coli” Photochemistry and Photobiology 86, 890-894, was followed. The bacterial cultures were grown in an incubator in Luria-Broth (LB)—Lennox formulation at 28° C. with shaking at 250 rpm. Once the cells reached the beginning of their exponential growth phase (A600=0.2), one milliliter aliquots were removed and centrifuged. The resulting pellets were washed once with sterile water and then resuspended in 500.0 μL of sterile water. The resuspended bacteria were mixed with 200.0 μL of stock solutions of the components or the multifunctional was selected for testing at 0.3 ppm for all components of the composition. The experimental samples were irradiated in a Rayonet photoreactor for 10 minutes or covered and kept in the dark for 10 minutes. […]

Structure (SMILES): C[C@H]1COc2c(N3CCN(C)CC3)c(F)cc3c(=O)c(C(=O)O)cn1c23 [levofloxacin]
- inhibition of growth of E. coli: substantial inhibition
